Test results published in publication PMC3715411.
These are yes or no findings as the source states them, for the method shown. Binding seen in cells or lysates may run through a third protein. Sequences can lack the tags named with a protein.

Amino acid sequences for entries named in this document (tags omitted).
UniProt P60766: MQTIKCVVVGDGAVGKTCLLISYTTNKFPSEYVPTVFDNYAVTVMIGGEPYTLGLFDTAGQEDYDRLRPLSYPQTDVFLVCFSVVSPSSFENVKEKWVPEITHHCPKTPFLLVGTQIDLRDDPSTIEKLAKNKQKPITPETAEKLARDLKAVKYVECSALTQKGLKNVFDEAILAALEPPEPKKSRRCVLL

Biological target: T1, Mycobacterium tuberculosis nucleoside diphosphate kinase (Ndk), recombinant, C-terminal 6xHis, on latex beads (Mycobacterium tuberculosis) (UniProt P9WJH7)
T1 sequence: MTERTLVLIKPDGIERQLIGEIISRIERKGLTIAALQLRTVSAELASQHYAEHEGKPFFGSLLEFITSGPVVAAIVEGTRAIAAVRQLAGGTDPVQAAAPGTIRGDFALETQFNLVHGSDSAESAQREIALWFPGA
Test: co-IP; only the target purified

**Q.** “Cdc42 GTPase, native, of RAW 264.7 macrophages (from UniProt P60766 1-191)” was tested. Which binding did it give?
**A.** no binding
